# Assay results: PMC7816512
# Results are given in words; binding and its absence hold for the method and conditions named. In cells and extracts the contact can be indirect. Here binding means that the protein was enriched with, or labelled near, the bait; the list need not be complete. Sequences can lack the tags named with a protein.
# T1: FLAG-HA-Rbm10 (S. pombe) (UniProt P87143)
# T1 sequence: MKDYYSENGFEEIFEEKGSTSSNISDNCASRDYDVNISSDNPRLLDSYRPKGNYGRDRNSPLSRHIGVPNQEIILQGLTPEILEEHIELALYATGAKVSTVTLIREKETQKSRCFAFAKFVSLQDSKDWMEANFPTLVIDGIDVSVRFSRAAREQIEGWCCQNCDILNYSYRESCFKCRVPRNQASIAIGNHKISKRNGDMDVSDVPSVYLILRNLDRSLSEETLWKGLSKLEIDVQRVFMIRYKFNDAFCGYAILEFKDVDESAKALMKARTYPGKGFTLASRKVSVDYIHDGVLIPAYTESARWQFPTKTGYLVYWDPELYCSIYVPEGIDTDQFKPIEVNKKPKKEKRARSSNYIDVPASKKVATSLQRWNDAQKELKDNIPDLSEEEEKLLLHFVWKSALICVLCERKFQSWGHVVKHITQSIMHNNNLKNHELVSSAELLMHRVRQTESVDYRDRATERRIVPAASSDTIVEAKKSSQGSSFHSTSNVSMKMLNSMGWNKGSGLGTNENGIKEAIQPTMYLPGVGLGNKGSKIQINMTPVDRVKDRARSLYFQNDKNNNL
# B1: Cdc5 (protein, UniProt P39964 1-757)
# chain: MVVLKGGAWKNTEDEILKAAVSKYGKNQWARISSLLVRKTPKQCKARWYEWIDPSIKKTEWSREEDEKLLHLAKLLPTQWRTIAPIVGRTATQCLERYQKLLDDLEAKENEQLGLISGEGAEAAAPVNDPNSRLRFGEAEPNLETLPALPDAIDMDEDEKEMLSEARARLANTQGKKAKRKDREKQLELTRRLSHLQKRRELKAAGINIKLFRRKKNEMDYNASIPFEKKPAIGFYDTSEEDRQNFREKREADQKIIENGIRNNEMESEGRKFGHFEKPKPIDRVKKPNKDAQEEKMRRLAEAEQMSKRRKLNLPSPTVSQDELDKVVKLGFAGDRARAMTDTTPDANYSTNLLGKYTQIERATPLRTPISGELEGREDSVTIEVRNQLMRNREQSSLLGQESIPLQPGGTGYTGVTPSHAANGSALAAPQATPFRTPRDTFSINAAAERAGRLASERENKIRLKALRELLAKLPKPKNDYELMEPRFADETDVEATVGVLEEDATDRERRIQERIAEKERLAKARRSQVIQRDLIRPSVTQPEKWKRSLENEDPTANVLLKEMIALISSDAINYPFGNSKVKGTANKVPDLSNEEIERCRLLLKKEIGQLESDDYIQFEKEFLETYSALHNTSSLLPGLVIYEEDDEDVEAAEKFYTNDIQRDLAKKALECNKLENRVYDLVRSSYEQRNFLIKKISHAWKALQTERKNLTCYEFLYNQERLALPNRLEAAEIELSKMQQIEAYAQQDYARVTGQN
# B2: Alp13 (protein, UniProt O13953 1-337)
# chain: MAVSYKVNERVLCFHGPLLYEAKIVDTEMKGDVTTYLIHYKGWKNSWDEWVEQDRILQWTEENLKTQKELKNAAISTRQKPTSKKSASSTSKHDSTGVKTSGKRSRESSTVTVDGDSHELPSRIKTQKSESPIPQQVKRDGTTDAKNEETTKPENNEKDDFEEEPPLPKHKISVPDVLKLWLVDDWENITKNQQLIAIPRNPTVRAAIAAFRESKISHLNNEIDVDVFEQAMAGLVIYFNKCLGNMLLYRFERQQYLEIRQQYPDTEMCDLYGVEHLIRLFVSLPELIDRTNMDSQSIECLLNYIEEFLKYLVLHKDEYFIKEYQNAPPNYRSLVGV
# B3: Cwf18 (protein, UniProt Q9UU80 1-142)
# chain: MSSLDEVAESRKQRLAELRKIKQLENKTRDSQEVQKNVIEHRNYDPEVQAPKMGFVEPPNMIESVEALSKEIEEKTKRKIEEQSSVPVEELDLVTLRPKKPTWDLERDLKERMRSLETQNQNAIAFYIQQLISERAHSTEKA
# B4: Cip1 (protein, UniProt O42923 1-490)
# chain: MPNEIFPWKIRVDESRGLAGNSGTKKSNHEALSRLQSPLNSPKLQPIGSPQASRKTSGSGSSAPLYPKWSGALSLASSRAASPAPSDSFPTFGYSQLGGLENSSKGSALFNSANSIGTPYLSSRNSNSANEASAMAFHNVSPPSGAESSSESKSFSASGKGNKADTSAEPSLDAFNSTQIKAGSTANSNSTPVEPGEDTIPTAIVVKNIPFSLEKDTLLDHFKQLGIPRPYAFNYHYDNGIFRGLAFANFYRPEEAQVVVQTLNGYEINGRRLRVEWKRQLPAAEREKVEKAKKRQAEERRRKQQYKMFEVSFTDQGLNLNDTGTLETYSRLLLFAHQCIPSREITFETTSKDGNLLNAIRIFCLYFDLDYYARPNGEVLKLVVTHPNKKNTSVSQSQPASPNLRFNMPAPLATRFLQEHSLNGTKSAPITPPPSFAVPLTNQLRSIDDKIYGNESPLQKASTLSSPFNSKNDNDASTSASKQSFGVSHF
# B5: Lsd2 (protein, UniProt Q10135 1-1235)
# chain: MNTSENDPDGHYDFPEMTEHHSDRASSYANANNVNSTQPQLVSSEQALLAILGGGLQSITPNSVNQNAYSRSTYRTDGGLNSQPVSSLNNQWGNYNPAFLPSRYDSSFHPYTISQAANQPFPQHLLGNSNAGVAQQSGMRTIGLPPTVGSSFPQQKSSTYENFFDANSPSSQQFPSTYPSRSQNPLSSSGDGSTAIHAGPIQHQNSNAFSNYPYPLDASHLSSQQLLSMYRDQVSHGVTPSTFRNHESFMPTQLVSATELSKSVDNAVLPIPPTTAPAVVSPPASSFPLMSSAATSGNISSPALFDSELGARPEGSVAIEPSRVLLQWSSQSSSHTIPSAGASIPTSSLKSFFEHAAEAARKCNLDPRALESFEQHMLSDRLHDPVVLFHYFQIRNSICWLWIKNPTHAISRVEAQGVCVDRCLFQLASLAYEFLVRYGYINYGCLSFDSSFTNETNTGTTSSSASKQKTIAVVGAGLTGLICARQLTGLFSQYSSSFLSKNELPPKVIILEAKERTGGRIYSRALPVSHTSATQINHHTSNSNSISSNSTSLNPKDVTDPSHIPSAIDLGFQFLFSPMDDILLNLLNKQLGIEVTEMTGSDLVYDETDTKVLDMVEVKKLNILWEKLLEYVSVCFFINVEESVRISWISQFQLFIDEMFPDHLSKSLSLNASHEFSFKKTMLILIDEVSSYAKLGNSQKKFLIWCFKVAELDDTLYPLNTVDTDFSKDILIPKVARRGLSQLPWALQSYPSPLNIHYEKFVSKVTIENDKCTLDCKDNSSYEVDQVVIACSPSHFSSNIEFSPGLPNFVTENIKSIDFKPGKKVILRYAAAFWRKNIRSFGIIPKSLSQEMNNDENDGKSCFVLRIWNMLPETGVPILVADINPQMTSSSSNETSHLIQELHSLIVDHFQNDSNSSADLLDAWVTNWSRNGVYDGLNSYPNFANDKQQYEKRFRQSQLSYNLGRLHIAGDYIFSCVGCRTLQRSFLSGLSVCTGIIDSLAPISLTIPIIGETSRKELDQFLRNSKVNNFDPNAEAQRHLSYQARYRLKKQERLDEHKEEQEQLVTELLGYLPEPPSKPNANPFLLYQKMQWHVCRALADEDKRRLTGDSTAKATINETRAKLGKTWRQLDDLGKKPWIDEIAAQREAYAGKILRYQRLTKEYEMRAEQIRNDYAAKCQDEPIPDDEARLFMQAQREEEQRKQTQDDNISKSREASDEEYHDDGSSDSGYNGTRY
# B6: Usp107 (protein, UniProt Q8WZK0 1-695)
# chain: MQRQNTQAAGMPMMPQVPMVGNGVPYVVPIQPVFAPLPPDYRSLYKKLYGQGAFLVDNPVEASSPYDFSQPILKFGKLPIKQVLRDNESQQKDRKNLPRNQKSNEIQEKQTFQTPSSEKSTTERESRPFVPPNSQQMRRMLFIGNIPKELDDFWMDKILRLSGKLASWRRVADADNSMTSFGFAEFESNEQFSRALEALNDFVVPPLYEGGPSTRLSLITDVENEGLYREWQTSRYARNKQKEINILQQIRFNLERICQDIGNFDVRSRIERAARQAREKNEKLLQNVKTSEIPINAADLEGINPELLPVIEEEIRSFRDQSAMKKREKQRSKDEYASLYKEYTRKEQEKLRKQNDDLQNLLSKHRISRIPMSTVNAFLRAEDSIPESFSDEQAYYEEKRRKDQLEAEEYYARERRWMNREKARTAALEREAAREEEERVNNTSFGTYLSEKLASFDDDEEARVSRDEYFVDRAAWIRHRAVARAREEDADALDRKEEERELRTRGEGATVETENYVENGKLVTSEMPQHENGPFKIKIQTKKPAVPSERREFGLPERLLLEEEDEEPQGYSPNPQKPKPAMEENDAEKTKRLRSLIEKIPVEAESLWALPIDWSKVTEDLLKEEMQAFVTKKIIEYIGIQEDSLITFTIDHIRQHKGAEQLVSELDLALAEDAPEFVSKVYRYLHVLLILRSEA
# B7: Uaf2 (protein, UniProt Q09176 1-216)
# chain: MASHLASIYGTEQDKVNCSFYYKIGACRHGERCSRKHVKPNFSQTILCPNMYKNPIHEPNGKKFTQRELAEQFDAFYEDMFCEFSKYGEVEQLVVCDNVGDHLVGNVYVRFKYEESAQNAIDDLNSRWYSQRPVYAELSPVTDFREACCRQHETSECQRGGLCNFMHAKKPSPQLLRDLVLAQRKYLALNAAEEMKKEPNSDSTNRWVSVTAERKN
# B8: Cwf10 (protein, UniProt O94316 1-984)
# chain: MMEEDLYDEFGNYIGPENEEDEEELFPQAPSPTIAQVPSFEEVIPDEELEDVERAEEMALSHLEPQNAVVLHEDKQYYPSAEEVYGSNVDIMVQEQDTQPLSQPIIEPIRHKRIAIETTNVPDTVYKKEFLFGLLTGTDDVRSFIVAGHLHHGKSALLDLLVYYTHPDTKPPKRRSLRYTDTHYLERERVMSIKSTPLTLAVSDMKGKTFAFQCIDTPGHVDFVDEVAAPMAISDGVVLVVDVIEGVMINTTRIIKHAILHDMPIVLVLNKVDRLILELRLPPNDAYHKLRHVIDEVNDNICQISKDLKYRVSPELGNVCFASCDLGYCFTLSSFAKLYIDRHGGIDVDLFSKRLWGDIYFDSKTRKFAKQSLDGSGVRSFVHFILEPLYKLHTLTISDEAEKLKKHLSSFQIYLKPKDYLLDPKPLLQLICASFFGFPVGFVNAVTRHIPSPRENAARKASQSYIGPINSSIGKAILEMSREESAPLVMHVTKLYNTVDANNFYAFARVYSGQVKKGQKVKVLGENYSLEDEEDMVVAHIAEICVPCARYRLHVDGAVAGMLVLLGGVDNSISKTATIVSDNLKDDPYIFRPIAHMSESVFKVAVEPHNPSELPKLLDGLRKTNKSYPLSITKVEESGEHTIFGTGEMYMDCLLYDLRTLYSEIEIRVSDPVARFCETAVDTSSIKCFSDTPNKKNRITMVVEPLEKGISNDIENGKVNINWPQKRISEFFQKNYDWDLLASRSIWAFGPDDRGTNILRDDTLSTDVDKNVLNSVKEYIKQGFQWGTREGPLCDETIRNVNFRLMDVVLAPEQIYRGGGQIIPTARRVCYSSFLTASPRLMEPVYMVEVHAPADSLPIIYDLLTRRRGHVLQDIPRPGSPLYLVRALIPVIDSCGFETDLRVHTQGQAMCQMVFDHWQVVPGDPLDKSIKPKPLEPARGSDLARDFLIKTRRRKGLVEDVSTTRYFDQEMIDSLKEAGVVLSL
# B9: Byr3 (protein, UniProt P36627 1-179)
# chain: MESESVPTVPQTTRPGPRCYNCGENGHQARECTKGSICYNCNQTGHKASECTEPQQEKTCYACGTAGHLVRDCPSSPNPRQGAECYKCGRVGHIARDCRTNGQQSGGRFGGHRSNMNCYACGSYGHQARDCTMGVKCYSCGKIGHRSFECQQASDGQLCYKCNQPGHIAVNCTSPVIEA
# Target: T1, FLAG-HA-Rbm10 (S. pombe)
# Experiment: affinity purification with mass spectrometry; two-step purification (anti-FLAG beads, 3xFLAG peptide elution, then uMACS HA magnetic beads) of overexpressed FLAG-HA-Rbm10 from S. pombe lysate with Benzonase; three independent purifications; control purification from an untagged strain
row,binding,Binder
1,binds,B1
2,binds,B2
3,binds,B3
4,binds,B4
5,binds,B5
6,binds,B6
7,binds,B7
8,binds,B8
9,binds,B9
